Record: PubChem BioAssay AID652243 (Drosophila RNAi Screening Center, 2013)
In all, the deposit lists about 24,000 reagents; below is an unselected part of those that have a named target and a result. In the full data, 246 (1%) are marked active. 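Plates not normalised; calls are printed but the firefly/Renilla ratio behind them is not deposited; fold cut for lowering reported inconsistently.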 The raw values are shown without normalisation. The numbers tell different reagents against one gene apart. A plus sign joins genes that one reagent is predicted to hit. The record does not give: the amount of reagent.

Aim: 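Knock-downs that decrease or increase androgen receptor reporter signal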 (primary screen)
Cells: Drosophila S2R+ cells
Reagents: long dsRNA against Drosophila genes
Duration: 72 h (48 h, then 24 h hormone)
Conditions: synthetic androgen R1881 at 10 nM for 24 h
Measured: 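Firefly light from an androgen-responsive reporter and Renilla control light per well, raw and unnormalised, for each of two replicates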
Direction: firefly reporter light: higher = more light from androgen-responsive reporter; Renilla control light: higher = more constitutive control signal (cell number, transfection)
Active means: 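Across duplicate plates, a knock-down whose log firefly/Renilla ratio shifted a set fold down or up from the GFP/LacZ control mean was a hit; the downward cut appears as both 1.5 and 3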
Meaning of the calls: active = hit: reporter lowered or raised; inactive = no hit

| target gene | reagent | firefly reporter light, replicate 1 | firefly reporter light, replicate 2 | Renilla control light, replicate 1 | Renilla control light, replicate 2 | call |
| --- | --- | --- | --- | --- | --- | --- |
| 825-Oak + CG32214 + CG32213 | 1 | 6.21e5 | 4.38e5 | 2.29e6 | 1.58e6 | inactive |
| Spn28Dc | 1 | 90654 | 90420 | 1.16e6 | 8.79e5 | inactive |
| Cadps | 1 | 9.98e5 | 9.25e5 | 2.03e6 | 1.43e6 | inactive |
| Cadps | 2 | 5.55e5 | 5.23e5 | 1.27e6 | 1.29e6 | inactive |
| CG15237 | 1 | 2.54e5 | 2.27e5 | 2.20e6 | 1.68e6 | inactive |
| CG9641 | 1 | 8.08e5 | 6.83e5 | 3.61e6 | 2.39e6 | inactive |
| CG9641 | 2 | 3.23e5 | 3.30e5 | 7.55e5 | 6.03e5 | inactive |
| CG6878 | 1 | 2.36e5 | 2.71e5 | 2.26e6 | 2.47e6 | inactive |
| Pal2 | 1 | 2.42e5 | 2.70e5 | 1.83e6 | 1.97e6 | inactive |
| RhoGAP19D | 1 | 98175 | 67714 | 4.05e5 | 5.50e5 | inactive |
| RhoGAP19D | 2 | 2.53e5 | 1.25e5 | 1.13e6 | 6.07e5 | inactive |
| Nlg1 | 1 | 2.56e5 | 2.75e5 | 3.60e5 | 2.96e5 | inactive |
| Nlg1 | 2 | 88484 | 96875 | 2.96e6 | 2.43e6 | inactive |
| Nlg1 | 3 | 1.08e5 | 73325 | 1.72e6 | 1.69e6 | inactive |
| Nlg1 | 4 | 88862 | 95339 | 1.58e6 | 1.64e6 | inactive |
| brun | 1 | 9.22e5 | 1.08e6 | 1.09e6 | 1.21e6 | inactive |
| Ccdc58 | 1 | 42327 | 79936 | 4.73e5 | 3.79e5 | inactive |
| et | 1 | 1.43e5 | 1.67e5 | 4.62e5 | 5.08e5 | inactive |
| psd | 1 | 1.20e5 | 1.42e5 | 1.64e6 | 1.25e6 | inactive |
| psd | 2 | 1.12e6 | 1.12e6 | 1.24e6 | 1.44e6 | inactive |
| CG34155 | 1 | 1.09e6 | 1.29e6 | 1.86e6 | 1.81e6 | inactive |
| cana + CG33695 | 1 | 8.62e5 | 8.93e5 | 1.56e6 | 1.59e6 | inactive |
| CG1888 | 1 | 3.14e5 | 2.54e5 | 1.85e6 | 1.70e6 | inactive |
| CG14573 | 1 | 3.03e5 | 2.55e5 | 2.72e6 | 2.82e6 | inactive |
| CG14573 | 2 | 7.06e5 | 6.94e5 | 1.01e6 | 1.20e6 | inactive |
| stet | 1 | 57973 | 95853 | 9.41e5 | 1.19e6 | inactive |
| stet | 2 | 1.13e5 | 1.89e5 | 1.53e6 | 1.60e6 | inactive |
| CG30377 | 1 | 1.04e6 | 8.26e5 | 2.18e6 | 2.17e6 | inactive |
| CG30377 | 2 | 6.86e5 | 9.32e5 | 1.06e6 | 9.96e5 | inactive |
| CG12093 | 1 | 8.19e5 | 4.99e5 | 1.54e6 | 1.34e6 | inactive |
| CG30485 | 1 | 92466 | 64163 | 2.04e6 | 2.04e6 | inactive |
| CG7985 | 1 | 1.00e5 | 86545 | 8.53e5 | 6.51e5 | inactive |
| Atg4a | 1 | 5.57e5 | 7.69e5 | 1.03e6 | 1.13e6 | inactive |
| Atg4a | 2 | 9.37e5 | 7.05e5 | 2.49e6 | 1.89e6 | inactive |
| CG16998 | 1 | 1.22e5 | 2.67e5 | 2.02e6 | 2.69e6 | inactive |
| CG18808 | 1 | 1.49e5 | 1.28e5 | 1.47e6 | 1.54e6 | inactive |
| CG11030 | 1 | 45515 | 43777 | 6.18e5 | 5.34e5 | inactive |
| CG11030 | 2 | 5.63e5 | 8.13e5 | 7.76e5 | 8.21e5 | inactive |
| S6kII | 1 | 98082 | 84140 | 8.25e5 | 8.05e5 | inactive |
| S6kII | 2 | – | – | – | – | inactive |
| S6kII | 3 | – | – | – | – | inactive |

5 successive records already listed, for reference:
| target gene | reagent | firefly reporter light, replicate 1 | firefly reporter light, replicate 2 | Renilla control light, replicate 1 | Renilla control light, replicate 2 | call |
| --- | --- | --- | --- | --- | --- | --- |
| CG16998 | 1 | 1.22e5 | 2.67e5 | 2.02e6 | 2.69e6 | inactive |
| CG18808 | 1 | 1.49e5 | 1.28e5 | 1.47e6 | 1.54e6 | inactive |
| CG11030 | 1 | 45515 | 43777 | 6.18e5 | 5.34e5 | inactive |
| CG11030 | 2 | 5.63e5 | 8.13e5 | 7.76e5 | 8.21e5 | inactive |
| S6kII | 1 | 98082 | 84140 | 8.25e5 | 8.05e5 | inactive |
